These results are taken from paper PMC7905942 (ACS Omega, 2021).

This assay concerns SW620, PC3 and NCI-H23 cancer cell lines. Briefly: SRB cytotoxicity, range over three human cancer cell lines. The assay is classed as cell-based. Particulars: read-out: Cytotoxicity IC50 values (range over cell lines).

As usually defined, the IC50 is the concentration at which inhibition is half-maximal.

As to `O=C(CCCCCCC(=O)Nc1ccccc1)NO` [SAHA, suberoylanilide hydroxamic acid, reference compound], the IC50 lay in the range of 1450 to 1660 nM.
